Data reported in US20220251193A1 (RAMOT AT TEL AVIV UNIVERSITY, published 2022).
Results are given in words; binding and its absence hold for the method and conditions named. Some entries that bind do so weakly or less than the wild type.

Protein sequences, listed by entry. Tags and fused reporters are not part of them. Residues count along the entry.
UniProt P02769, residues 25-607: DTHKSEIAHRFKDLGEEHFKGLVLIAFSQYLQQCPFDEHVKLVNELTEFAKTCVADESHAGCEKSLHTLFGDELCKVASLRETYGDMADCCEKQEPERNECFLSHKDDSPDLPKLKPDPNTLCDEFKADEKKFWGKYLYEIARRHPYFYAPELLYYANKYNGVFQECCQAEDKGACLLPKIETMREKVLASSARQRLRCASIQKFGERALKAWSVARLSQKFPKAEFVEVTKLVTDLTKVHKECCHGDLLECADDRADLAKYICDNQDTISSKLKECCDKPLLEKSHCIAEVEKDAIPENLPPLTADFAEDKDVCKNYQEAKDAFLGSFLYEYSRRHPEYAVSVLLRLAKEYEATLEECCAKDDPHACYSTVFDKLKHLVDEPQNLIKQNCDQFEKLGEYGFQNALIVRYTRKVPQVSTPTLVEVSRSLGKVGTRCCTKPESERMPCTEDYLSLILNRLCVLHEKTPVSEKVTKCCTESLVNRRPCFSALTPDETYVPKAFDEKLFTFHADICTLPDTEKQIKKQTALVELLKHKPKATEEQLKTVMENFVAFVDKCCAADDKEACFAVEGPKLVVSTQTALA

T1: Sema3a protein (human (by the filing's definition of Sema3A at paragraph 83; the examples state no species)) (UniProt Q14563)
T1 sequence: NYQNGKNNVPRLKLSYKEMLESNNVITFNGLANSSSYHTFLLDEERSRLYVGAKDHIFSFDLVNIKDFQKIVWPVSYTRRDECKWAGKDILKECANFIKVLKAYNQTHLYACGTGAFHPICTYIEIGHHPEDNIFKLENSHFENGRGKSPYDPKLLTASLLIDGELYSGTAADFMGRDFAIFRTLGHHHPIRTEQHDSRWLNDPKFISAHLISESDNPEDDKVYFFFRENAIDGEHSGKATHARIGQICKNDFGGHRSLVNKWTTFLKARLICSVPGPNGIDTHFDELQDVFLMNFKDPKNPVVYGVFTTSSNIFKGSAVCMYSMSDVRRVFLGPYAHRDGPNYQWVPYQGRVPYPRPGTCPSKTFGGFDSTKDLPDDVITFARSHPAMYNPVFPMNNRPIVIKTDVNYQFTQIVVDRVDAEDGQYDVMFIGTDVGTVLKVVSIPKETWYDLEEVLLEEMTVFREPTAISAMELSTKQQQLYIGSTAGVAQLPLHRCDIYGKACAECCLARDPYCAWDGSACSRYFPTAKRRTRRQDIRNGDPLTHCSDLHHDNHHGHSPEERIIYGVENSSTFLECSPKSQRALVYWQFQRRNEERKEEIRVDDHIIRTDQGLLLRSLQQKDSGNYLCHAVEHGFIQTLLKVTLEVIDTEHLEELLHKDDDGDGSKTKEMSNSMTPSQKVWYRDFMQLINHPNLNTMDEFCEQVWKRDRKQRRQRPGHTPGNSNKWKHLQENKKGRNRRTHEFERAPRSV


Columns and labels:
[1] = target: T1, Sema3a protein (human (by the filing's definition of Sema3A at paragraph 83; the examples state no species)); assay: soluble Fabs evaluated by ELISA on Sema3a
BSA (bovine) = BSA (bovine) (UniProt P02769); assay: ELISA on coated control antigen, Fab in 2 fold dilutions from 1 µM, detection with HRP goat anti human H+L

binding [1] | binding (BSA (bovine)) | Binder
binds |  | Fab L4D8 (Fab, V domains shown) VH: EVQLLESGGGLVQPGGSLRLSCAASGFTFTDYYMSWVRQAPGKGLEWVSSISSSSSYIYYADSVKGRFTISRDNSKNTLYLQMNSLRAEDTAVYYCARGGDYDAFDIWGQGTLVTVSS VL: QSVLTQPPSASGTPGQRVTISCSGRSSNVGSNSVNWYQQLPGTAPKLLIYTNDQRPSGVSDRFSGSKSGTSASLAISGLLSEDEADYYCSSYTSSSTRVFGTGTKLTVL
binds |  | Fab L4F8 (Fab, V domains shown) VH: EVQLLESGGGLVQPGGSLRLSCAASGFTFTDYYMNWVRQAPGKGLEWVSRITNDGMSTAYADFVKGRFTISRDNSKNTLYLQMNSLRAEDTAVYYCARSPLEEGRITFRYWYFDLWGQGTLVTVSS VL: DIVLTQSPGTLSLSPGERATLSCRASQSVSSNLAWYQQKPGQAPRLLIYDASNRATGIPDRFSGSGSGTDFTLTISRLEPEDFAVYYCQQGDSYPYTFGQGTKLEIK
binds | no binding (tested: 1000 nM) | Fab L4E6 (Fab, V domains shown, C-terminal His tag on the Fd fragment) VH: EVQLLESGGGLVQPGGSLRLSCAASGFTFSNFVMNWVRQAPGKGLEWVSRINTDGTSTNYADSVTGRFTISRDNSKNTLYLQMNSLRAEDTAVYYCARDYPLRRLMYYYYGMDVWGQGTLVTVSS VL: DIVLTQSPGTLSLSPGERATLSCRASQTISSNLAWYQQKPGQAPRLLIYGASSRATGIPDRFSGSGSGTDFTLTISRLEPEDFAVYYCQQYSWSPRVYSFGQGTKLEIK
binds |  | Fab L4G11 (Fab, V domains shown) VH: EVQLLESGGGLVQPGGSLRLSCAASGFTVRNNYMSWVRQAPGKGLEWVSGLSGFGRGAHYSDSVKGRFTISRDNSKNTLYLQMNSLRAEDTAVYYCARGAVGYLQWFPDVWGQGTLVTVSS VL: QSVLTQPPSASGTPGQRVTISCSGGRSNIGSNTVNWYQQLPGKAPKLLIYGNSNRPSGVPDRFSGSKSGTSASLAISGLRSEDEADYYCCSHARGDTLIFGVGTKLTVL
binds |  | Fab L4D10 (Fab, V domains shown) V domain 1: EVQLLESGGGLVQPGGSLRLSCAASGFTFRSYGMHWVRQAPGKGLEWVSSISPTTNYRSYADSLRGRFTISRDNSKNTLYLQMNSLRAEDTAVYYCARGHRDRSGSPVGYLDYWGQGTLVTVSS V domain 2: QSVLTQPPSASGTPGQRVTISCTGSSSNIGRNSVNWYQQLPGTAPKLLIYSNHHRPSGVPDRFSGSKSGTSASLAISGLRSEDEADYYCSSYAGSNKYVFGTGTQVTVL

The remaining lines, values behind:

Binder | binding [1] | binding (BSA (bovine))
Fab 3B7CorrC3 (Fab, V domains shown) VH: EVQLLESGGGLVQPGGSLRLSCAASGFTFTDYYMSWVRQAPGKRLEWVSAISDSGGMTYYADSVRGRFTISRDNSKNTLYLQMNSLKAEDTAVYYCAREPLGDHGDLRPDFDYWGQGTLVTVSS VL: QSVLTQPPSASGTPGQRVTISCSGGSSNIGSQTVLWYQQLPGTAPKLLIYDNNKRPSGVPDRFSGSKSGTSASLAISGLRSEDEADYYCASWDDSLSGGVFGGGTKVTVL | binds | 
Fab 3H8 (Fab, V domains shown) VH: EVQLLESGGGLVQPGGSLRLSCAASGFTFSSYGMHWVRQAPGKGLEWVSYISSSGSHTSFADSVKGRFTISRDNSKNTLYLQMNSLRAEDTAVYYCARDGLFGIDYWGQGTLVTVSS VL: DIVLTQSPGTLSLSPGERATLSCRASQSISSNLAWYQQKPGQAPRLLIYGASSRATGIPDRFSGSGSGTDFTLTISRLEPEDFAVYYCQQRDWPPFTFGQGTKLEIK | binds | 
Fab 3G1CorrC10 (Fab, V domains shown) VH: EVQLLESGGGLVQPGGSLRLSCAASGFTFSNHAMSWVRQAPGKGLEWVSSISASGGSTYYADSVKGRFTISRDNSKNTLYLQMNSLRAEDTAVYYCARAESGYQLDYWGQGTLVTVSS VL: DIVLTQSPGTLSLSPGERATLSCRASQSVSSSYLAWYQQKPGQAPRLLIYGVSNRATGIPDRFSGSGSGTDFTLTISRLEPEDFAVYYCQQSYSTPYTFGPGTKLDIK | binds | 
Fab 3A9CorrC6 (Fab, V domains shown) VH: EVQLLESGGGLVQPGGSLRLSCAASGFTFSPYAMSWVRQAPGKGLEWVSVIFTSGTTNYADSVKGRFTISRDNSKNTLYLQMNSLRAEDTAVYYCARELRRPGDGVPAATSDYWGQGTLVTVSS VL: QSVLTQPPSASGTPGQRVTISCSGSTSNIGRNYVCWYQQLPGKAPKLLIYANNNRPSGVPDRFSGSKSGTSASLAISGLRSEDEADYYCSSYTSSSTLVFGGGTQLTVL | binds | 
Fab 3E2CorrG9 (Fab, V domains shown) VH: EVQLLESGGGLVQPGGSLRLSCAASGFTFGDFAMSWVRQAPGKGLEWVSSISSNSSYIYYADSVKGRFTISRDNSKNTLYLQMNSLRAEDTAVYYCARGRVYGDFGKFDSWGQGTLVTVSS VL: DIVLTQSPGTLSLSPGERATLSCTASQSVGRYLAWYQQKPGQAPRLLIYGASSRATGIPDRFSGSGSGTDFTLTISRLEPEDFAVYYCQQYGSSLTFGGGTKLDIK | binds | 
Fab 3C7 (Fab, V domains shown) V domain 1: EVQLLESGGGLVQPGGSLRLSCAASGFTVSSYWMHWVRQAPGKGLEWVSSTTGSGGSTYYADSVKGRFTISRDNSKNTLYLQMNSLRAEDTAVYYCARGTSGWYGIDYWGQGTLVTVSS V domain 2: QSVLTQPPSASGTPGQRVTISCSGSSSNIGNNHVSWYQQLPGTAPKLLIYCNNNRPSGVPDRFSGSKSGTSASLAISGLRSEDEADYYCQVWDSSRDQGVFGGGTQVTVL | binds | 
Fab L4B8 (Fab, V domains shown, C-terminal His tag on the Fd fragment) VH: EVQLLESGGGLVQPGGSLRLPCAASGFTVGLYNINWVRQAPGKGLAWVSTISGSGLNTYYSDPVKGRFTISRDNSKNTLYLQMNSLRAEDTAVYYCARDEDTYAFNWGQGTLVTVSS VL: DIVLTQSPGTLSLSPGERATLSCRASQSVSSSYLAWYQQKPGQAPRLLIYGASTRAPGIPDRFSGSGSGTDFTLTISRLEPEDFAVYYCHQRGSGDTFGPGTKVEIK | binds | no binding (tested: 1000 nM)
Fab 3G3 (Fab, V domains shown) V domain 1: EVQLLESGGGLVQPGGSLRLSCAASGFTFNDYWMHWVRQAPGKGLEWVSALTGGGDTPWYPGSVKGRFTISRDNSKNTLYLQMNSLRAEDTAVYYCARVKVVPRSRETDAFDVWGQGTLVTVSS V domain 2: QSVLTQPPSASGTPGQRVTISCTGGPPNIGNNAVFWYQQLPGKAPKLLIYELTKRPSGVPDRFSGSKSGTSASLAISGLRSEDEADYYCSSYTRVSTPVFGGGTQVTVL | binds | 
Fab 3A3 (Fab, V domains shown) VH: EVQLLESGGGLVQPGGSLRLSCAASGFTFTSYDMDWVRQAPGKGLEWVSAINSNGDSTYYPDTVKDRFTISRDNSKNTLYLQMNSLRAEDTAVYYCARAQGQWLFHNWFDHWGQGTLVTVSS VL: QSVLTQPPSASGTPGQRVTISCSGGNSNIGDHYVSWYQQLPGTAPKLLIYGDTHRPSGVPDRFSGSKSGTSASLAISGLRSEDEADYYCGTWDSSLSAGVFGGGTKVTVL | binds | 
